Taken from: PubChem BioAssay AID1159584 (Peter MacCallum Cancer Centre, 2016)

- Purpose: 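Knock-downs that harm CDH1-null cells more than parental MCF10A cells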 (primary screen)
- System: human MCF10A breast epithelial cells, parental and CDH1-null
- Knock-down reagent: siRNA against human genes
- Detection: 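ATP luminescence (CellTiter-Glo) viability per line relative to mean mock wells over all plates, and the ratio of CDH1-null to parental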
- Reading the numbers: CDH1-null / parental viability ratio: higher = CDH1-null cells survive relatively better than parental; CDH1-null viability vs mock: higher = more viable CDH1-null cells
- Units: CDH1-null viability vs mock in fraction of mock
This is an unselected part of about 18,000 reagents tested. Not all columns of the deposit are shown. No sequences are given here. Not given: the amount of reagent, the time to read-out.

NFU1 (NFU1 iron-sulfur cluster scaffold) → CDH1-null / parental viability ratio: 1.08; CDH1-null viability vs mock: 0.92
LAIR2 (leukocyte associated immunoglobulin like receptor 2) → CDH1-null / parental viability ratio: 1.09; CDH1-null viability vs mock: 1.05
TDRD6 (tudor domain containing 6) → CDH1-null / parental viability ratio: 0.8; CDH1-null viability vs mock: 0.57
CTDNEP1 (CTD nuclear envelope phosphatase 1) → CDH1-null / parental viability ratio: 1.06; CDH1-null viability vs mock: 0.56
NXPH3 (neurexophilin 3) → CDH1-null / parental viability ratio: 1.63; CDH1-null viability vs mock: 0.49
SPAG17 (sperm associated antigen 17) → CDH1-null / parental viability ratio: 0.97; CDH1-null viability vs mock: 0.84
RSRP1 (arginine and serine rich protein 1) → CDH1-null / parental viability ratio: 1.1; CDH1-null viability vs mock: 0.68
ABCE1 (ATP binding cassette subfamily E member 1) → CDH1-null / parental viability ratio: 0.9; CDH1-null viability vs mock: 0.7
SPRYD3 (SPRY domain containing 3) → CDH1-null / parental viability ratio: 1.02; CDH1-null viability vs mock: 0.84
TMC3 (transmembrane channel like 3) → CDH1-null / parental viability ratio: 1.03; CDH1-null viability vs mock: 1.43
NFIX (nuclear factor I X) → CDH1-null / parental viability ratio: 0.76; CDH1-null viability vs mock: 0.74
LRRC28 (leucine rich repeat containing 28) → CDH1-null / parental viability ratio: 1.11; CDH1-null viability vs mock: 0.8
FAM199X (family with sequence similarity 199, X-linked) → CDH1-null / parental viability ratio: 1.09; CDH1-null viability vs mock: 0.71
ATP13A2 (ATPase cation transporting 13A2) → CDH1-null / parental viability ratio: 0.72; CDH1-null viability vs mock: 0.65
STRN3 (striatin 3) → CDH1-null / parental viability ratio: 0.91; CDH1-null viability vs mock: 0.64
KAT6B (lysine acetyltransferase 6B) → CDH1-null / parental viability ratio: 0.9; CDH1-null viability vs mock: 0.94
TSPAN31 (tetraspanin 31) → CDH1-null / parental viability ratio: 0.86; CDH1-null viability vs mock: 0.72
IRGQ (immunity related GTPase Q) → CDH1-null / parental viability ratio: 1.25; CDH1-null viability vs mock: 1
ARG1 (arginase 1) → CDH1-null / parental viability ratio: 0.89; CDH1-null viability vs mock: 0.85
RNF24 (ring finger protein 24) → CDH1-null / parental viability ratio: 0.77; CDH1-null viability vs mock: 0.68
TATDN2 (TatD DNase domain containing 2) → CDH1-null / parental viability ratio: 1.19; CDH1-null viability vs mock: 1.08
ADORA2A (adenosine A2a receptor) → CDH1-null / parental viability ratio: 0.86; CDH1-null viability vs mock: 0.91
AMER1 (APC membrane recruitment protein 1) → CDH1-null / parental viability ratio: 0.98; CDH1-null viability vs mock: 0.51
FBXO31 (F-box protein 31) → CDH1-null / parental viability ratio: 0.83; CDH1-null viability vs mock: 0.65
